According to paper doi:10.1101/610980:
Like-named read-outs stand apart in the source and are kept apart here. No constants are given. Whether binding was seen depends on the method and setting. In cells and extracts the contact can be indirect. Some binding calls cover weakened binding; strength is not graded here. For part of these data: Where a sequence is shown, tags or fusion partners need not be part of it.

By UniProt entry, the sequences of proteins in these tests, tags left out.
UniProt P23201: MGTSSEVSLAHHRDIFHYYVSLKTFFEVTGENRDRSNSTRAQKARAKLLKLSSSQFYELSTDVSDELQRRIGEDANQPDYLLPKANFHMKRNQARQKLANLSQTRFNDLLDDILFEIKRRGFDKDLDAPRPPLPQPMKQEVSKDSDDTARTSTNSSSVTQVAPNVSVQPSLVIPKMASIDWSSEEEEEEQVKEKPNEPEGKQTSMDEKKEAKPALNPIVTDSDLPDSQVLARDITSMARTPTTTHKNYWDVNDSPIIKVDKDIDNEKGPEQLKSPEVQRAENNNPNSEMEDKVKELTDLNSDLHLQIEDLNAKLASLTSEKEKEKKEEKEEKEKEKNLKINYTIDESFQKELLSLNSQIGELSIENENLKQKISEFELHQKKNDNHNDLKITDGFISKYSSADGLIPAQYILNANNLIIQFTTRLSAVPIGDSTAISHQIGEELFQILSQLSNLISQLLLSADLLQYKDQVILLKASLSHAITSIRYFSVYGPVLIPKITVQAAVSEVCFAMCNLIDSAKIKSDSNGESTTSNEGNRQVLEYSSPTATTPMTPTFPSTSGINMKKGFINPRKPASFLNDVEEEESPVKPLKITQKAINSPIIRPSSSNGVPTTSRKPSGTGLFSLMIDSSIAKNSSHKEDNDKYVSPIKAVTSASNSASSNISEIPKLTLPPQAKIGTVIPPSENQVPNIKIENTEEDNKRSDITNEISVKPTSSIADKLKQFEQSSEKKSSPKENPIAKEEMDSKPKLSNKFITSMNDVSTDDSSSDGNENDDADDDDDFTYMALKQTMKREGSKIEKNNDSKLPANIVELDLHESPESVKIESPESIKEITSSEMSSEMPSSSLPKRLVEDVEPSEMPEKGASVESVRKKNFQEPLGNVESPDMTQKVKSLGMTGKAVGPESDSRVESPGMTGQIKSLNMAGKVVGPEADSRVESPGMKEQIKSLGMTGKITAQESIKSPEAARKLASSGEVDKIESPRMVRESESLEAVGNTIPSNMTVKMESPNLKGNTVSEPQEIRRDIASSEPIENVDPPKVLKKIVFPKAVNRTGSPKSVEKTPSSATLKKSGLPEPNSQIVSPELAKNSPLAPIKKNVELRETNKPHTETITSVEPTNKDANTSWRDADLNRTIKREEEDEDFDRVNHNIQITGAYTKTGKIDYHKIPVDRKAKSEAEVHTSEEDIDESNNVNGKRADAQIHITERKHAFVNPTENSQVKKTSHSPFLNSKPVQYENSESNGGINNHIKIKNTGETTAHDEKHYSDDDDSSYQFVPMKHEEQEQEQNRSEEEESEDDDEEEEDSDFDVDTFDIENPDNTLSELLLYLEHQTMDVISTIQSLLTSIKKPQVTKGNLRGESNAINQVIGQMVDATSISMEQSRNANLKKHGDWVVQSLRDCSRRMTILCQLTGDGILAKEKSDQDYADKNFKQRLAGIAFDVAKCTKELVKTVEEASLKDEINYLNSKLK

Legend:
[1] = biological target: T1, GST-Bud6_(1-141) (S. cerevisiae) (UniProt P41697); test: pull-down
T1 sequence: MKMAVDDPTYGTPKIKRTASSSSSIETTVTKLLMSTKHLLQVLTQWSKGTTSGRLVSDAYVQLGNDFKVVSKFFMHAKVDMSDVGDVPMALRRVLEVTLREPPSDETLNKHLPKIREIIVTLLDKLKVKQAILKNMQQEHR

[2] = biological target: T2, GST-Bud6_(1-364) (S. cerevisiae) (UniProt P41697); test: pull-down
T2 sequence: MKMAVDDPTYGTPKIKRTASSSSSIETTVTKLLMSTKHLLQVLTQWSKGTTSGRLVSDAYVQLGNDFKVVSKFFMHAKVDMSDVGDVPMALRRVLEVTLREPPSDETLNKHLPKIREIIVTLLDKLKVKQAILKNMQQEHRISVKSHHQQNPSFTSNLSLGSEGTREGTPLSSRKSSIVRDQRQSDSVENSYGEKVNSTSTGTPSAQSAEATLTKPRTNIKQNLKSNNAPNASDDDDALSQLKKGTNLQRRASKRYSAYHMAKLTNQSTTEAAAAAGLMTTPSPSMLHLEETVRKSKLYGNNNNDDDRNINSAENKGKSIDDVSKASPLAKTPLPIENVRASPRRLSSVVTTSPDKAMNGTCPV

[3] = biological target: Aip5 lacking the N-terminal 300 amino acids, as CRU fusion (S. cerevisiae) (UniProt P43597); test: split reporter
[4] = biological target: Aip5CRU (full-length Aip5 fused to C-terminal Ubiquitin-R (arginine)-Ura3) (S. cerevisiae) (UniProt P43597); test: split reporter
[5] = biological target: Aip5_(Δ1000-1125) CRU (S. cerevisiae) (UniProt P43597); test: split reporter
[6] = biological target: T3, N-terminal 300 amino acids of Aip5 as CRU fusion (S. cerevisiae) (UniProt P43597); test: split reporter
T3 sequence: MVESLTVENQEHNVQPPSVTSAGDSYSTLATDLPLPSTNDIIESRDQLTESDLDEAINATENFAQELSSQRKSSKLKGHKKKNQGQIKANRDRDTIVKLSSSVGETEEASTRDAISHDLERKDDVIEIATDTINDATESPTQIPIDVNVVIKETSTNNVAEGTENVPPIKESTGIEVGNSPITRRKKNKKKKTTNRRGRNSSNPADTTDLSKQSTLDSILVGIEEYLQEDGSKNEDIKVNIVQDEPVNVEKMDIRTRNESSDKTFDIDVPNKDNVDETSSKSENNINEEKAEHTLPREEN

[7] = biological target: Aip5CRU (full-length Aip5 fused to C-terminal Ubiquitin-R (arginine)-Ura3) (S. cerevisiae) (UniProt P43597); test: split reporter; remark: listed apart in the source
[8] = biological target: Aip5_(1000-end)CRU (S. cerevisiae) (UniProt P43597); test: split reporter
[9] = biological target: Aip5CRU (full-length Aip5 fused to C-terminal Ubiquitin-R (arginine)-Ura3) (S. cerevisiae) (UniProt P43597); test: split reporter; remark: listed apart in the source
[10] = biological target: T4, Aip5_(1000-1131) as CRU fusion (S. cerevisiae) (UniProt P43597); test: split reporter
T4 sequence: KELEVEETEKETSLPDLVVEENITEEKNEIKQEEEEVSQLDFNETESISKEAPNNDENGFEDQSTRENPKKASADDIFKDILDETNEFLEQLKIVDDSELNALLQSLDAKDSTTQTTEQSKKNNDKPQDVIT

[11] = biological target: Aip5_(Δ1000-1125) CRU (S. cerevisiae) (UniProt P43597); test: split reporter; remark: listed apart in the source

His6-Aip5_(1000-end) (from UniProt P43597 1000-1233) (domain or fragment)
binding [1]: binds | binding [2]: binds

Nub-Spa2 (from UniProt P23201 1-1466)
binding [3]: no binding | binding [4]: binds | binding [5]: binds | binding [6]: binds | binding [7]: binds

B1: Nub-Bud6_(1-141) (domain or fragment, UniProt P41697 1-141)
chain: T1 sequence
binding [8]: binds

B2: Nub-Bud6 (protein, UniProt P41697 1-788)
chain: MKMAVDDPTYGTPKIKRTASSSSSIETTVTKLLMSTKHLLQVLTQWSKGTTSGRLVSDAYVQLGNDFKVVSKFFMHAKVDMSDVGDVPMALRRVLEVTLREPPSDETLNKHLPKIREIIVTLLDKLKVKQAILKNMQQEHRISVKSHHQQNPSFTSNLSLGSEGTREGTPLSSRKSSIVRDQRQSDSVENSYGEKVNSTSTGTPSAQSAEATLTKPRTNIKQNLKSNNAPNASDDDDALSQLKKGTNLQRRASKRYSAYHMAKLTNQSTTEAAAAAGLMTTPSPSMLHLEETVRKSKLYGNNNNDDDRNINSAENKGKSIDDVSKASPLAKTPLPIENVRASPRRLSSVVTTSPDKAMNGTCPVFLRIGDKTKKCHVQLPTTKNALRLLFIERFAYSPGANSFPDIYIMDPQYGVFYELEELNLLDIKEGFVIELKLEENPNNTIKEFIDTVKMEISNSQNDIIRHLKEMSFGSAISGKQTEVLPQPGLEANKHDLVGQNKKDDDKTIKDIQYELGKIKQVHNINRSNINETIFNILRKVDNFKSLSFSAKNSSNRMYMEKSQTELGDLSDTLLSKVDDLQDVIEIMRKDVAERRSQPAKKKLETVSKDLENAQADVLKLQEFIDTEKPHWKKTWEAELDKVCEEQQFLTLQEELILDLKEDLGKALETFDLIKLCCEEQEKNPSRSKSNPILPIMRPGTFNQVREQVMVAVQSLNPDHDSRVEAIDKAEKMWEMERKLKASNEFDDELENFVGNSNLKKSGGFEEVERIRKQKDEANLRAYFGPGFT
binding [7]: binds | binding [9]: binds | binding [10]: binds | binding [11]: no binding
